In paper PMC12632257 one finds binding data, which are given here for one molecule.

These are yes or no findings as the source states them, for the method shown. Some entries that bind do so weakly or less than the wild type. Sequences can lack the tags named with a protein.

The assay addresses T1, AraQ, a TMD from the AraNPQ importer, fused to fragment T25 (B. subtilis) (UniProt P94530).
T1 sequence: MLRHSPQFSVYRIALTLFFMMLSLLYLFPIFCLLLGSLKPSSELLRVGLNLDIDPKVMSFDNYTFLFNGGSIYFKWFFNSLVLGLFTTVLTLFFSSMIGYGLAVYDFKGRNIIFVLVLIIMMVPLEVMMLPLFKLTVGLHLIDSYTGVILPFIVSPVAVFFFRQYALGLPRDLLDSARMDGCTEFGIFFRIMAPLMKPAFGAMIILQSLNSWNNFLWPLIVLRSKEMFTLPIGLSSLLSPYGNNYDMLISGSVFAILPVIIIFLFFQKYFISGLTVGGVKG
In words: two-hybrid; bacterial adenylate cyclase two-hybrid (B2H) in E. coli BTH101; ATPases fused to T18 (pUT18), TMDs fused to T25 (pKT25 or pKNT25); LB with antibiotics and 0.5 mM IPTG, 30°C; β-galactosidase activity and spotting on X-Gal plates.

B1: MsmX, multitask nucleotide-binding domain (NBD, ATPase), fused to fragment T18 (enzyme, UniProt P94360 1-365)
chain: MAELRMEHIYKFYDQKEPAVDDFNLHIADKEFIVFVGPSGCGKSTTLRMVAGLEEISKGDFYIEGKRVNDVAPKDRDIAMVFQNYALYPHMTVYDNIAFGLKLRKMPKPEIKKRVEEAAKILGLEEYLHRKPKALSGGQRQRVALGRAIVRDAKVFLMDEPLSNLDAKLRVQMRAEIIKLHQRLQTTTIYVTHDQTEALTMATRIVVMKDGKIQQIGTPKDVYEFPENVFVGGFIGSPAMNFFKGKLTDGLIKIGSAALTVPEGKMKVLREKGYIGKEVIFGIRPEDIHDELIVVESYKNSSIKAKINVAELLGSEIMIYSQIDNQDFIARIDARLDIQSGDELTVAFDMNKGHFFDSETEVRIR
For B1, the binding entry is “binds”.
